Experimental data published in paper doi:10.1101/2024.12.01.621710 (bioRxiv, 2024).
No constants are given. Whether binding was seen depends on the method and setting. In cells and extracts the contact can be indirect. Binding can be weak; no strength is given.

Assays:
[1] = target: IncA-FLAG (Chlamydia trachomatis serovar L2 (LGV 434/Bu)); assay: co-IP
[2] = target: CpoS-HA, full length (CTL0481) (Chlamydia trachomatis serovar L2 (LGV 434/Bu)); assay: co-IP

Substance	binding [1]	binding [2]
CpoS-HA, full length (CTL0481) (from UniProt A0A0H3MBY4)	binds	–
eGFP-Rab35 (from UniProt Q15286 1-201)	–	binds
